These are yes or no findings as the source states them, for the method shown. Binding seen in cells or lysates may run through a third protein. Here binding means that the protein was enriched with, or labelled near, the bait; the list need not be complete. Tags and fused reporters may be left off the sequences shown.
Target: T1, GST-tagged RB1 (UniProt P06400)
T1 sequence: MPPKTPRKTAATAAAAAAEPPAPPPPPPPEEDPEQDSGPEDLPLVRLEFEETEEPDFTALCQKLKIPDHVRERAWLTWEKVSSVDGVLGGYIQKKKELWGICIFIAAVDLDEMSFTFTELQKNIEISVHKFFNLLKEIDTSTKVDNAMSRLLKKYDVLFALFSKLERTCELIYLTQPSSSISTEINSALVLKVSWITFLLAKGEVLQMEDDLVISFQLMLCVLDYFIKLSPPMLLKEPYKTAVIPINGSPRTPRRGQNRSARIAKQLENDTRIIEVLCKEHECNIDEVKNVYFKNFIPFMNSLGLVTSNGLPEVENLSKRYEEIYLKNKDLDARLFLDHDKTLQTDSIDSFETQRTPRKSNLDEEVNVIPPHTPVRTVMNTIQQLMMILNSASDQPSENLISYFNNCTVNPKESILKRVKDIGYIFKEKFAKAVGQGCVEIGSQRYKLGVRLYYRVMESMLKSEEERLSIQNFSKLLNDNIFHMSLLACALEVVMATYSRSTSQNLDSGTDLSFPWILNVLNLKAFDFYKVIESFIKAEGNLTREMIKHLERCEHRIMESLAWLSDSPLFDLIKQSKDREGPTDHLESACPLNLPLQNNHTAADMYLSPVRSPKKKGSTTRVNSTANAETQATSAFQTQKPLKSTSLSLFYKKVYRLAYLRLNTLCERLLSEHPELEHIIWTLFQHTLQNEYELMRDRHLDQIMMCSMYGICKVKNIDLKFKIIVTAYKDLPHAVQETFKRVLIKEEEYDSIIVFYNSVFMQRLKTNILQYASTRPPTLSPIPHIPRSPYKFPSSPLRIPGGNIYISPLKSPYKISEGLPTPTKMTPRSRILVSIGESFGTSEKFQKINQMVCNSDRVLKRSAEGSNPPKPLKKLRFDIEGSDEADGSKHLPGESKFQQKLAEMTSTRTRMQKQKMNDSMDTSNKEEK
Assay: affinity purification with mass spectrometry; GST-RB1 expressed in HEK293 cells, CDK4/6i treatment; 1000 μg lysate protein on Glutathione sepharose 4B 6 h at 4 °C, washed four times with NETN buffer (100 mM NaCl, 20 mM Tris-HCl pH 8.0, 0.5 mM EDTA, 0.5% NP-40), eluted with glutathione, LC-MS/MS

Protein sequences, listed by entry. Tags and fused reporters are not part of them.
UniProt Q12834: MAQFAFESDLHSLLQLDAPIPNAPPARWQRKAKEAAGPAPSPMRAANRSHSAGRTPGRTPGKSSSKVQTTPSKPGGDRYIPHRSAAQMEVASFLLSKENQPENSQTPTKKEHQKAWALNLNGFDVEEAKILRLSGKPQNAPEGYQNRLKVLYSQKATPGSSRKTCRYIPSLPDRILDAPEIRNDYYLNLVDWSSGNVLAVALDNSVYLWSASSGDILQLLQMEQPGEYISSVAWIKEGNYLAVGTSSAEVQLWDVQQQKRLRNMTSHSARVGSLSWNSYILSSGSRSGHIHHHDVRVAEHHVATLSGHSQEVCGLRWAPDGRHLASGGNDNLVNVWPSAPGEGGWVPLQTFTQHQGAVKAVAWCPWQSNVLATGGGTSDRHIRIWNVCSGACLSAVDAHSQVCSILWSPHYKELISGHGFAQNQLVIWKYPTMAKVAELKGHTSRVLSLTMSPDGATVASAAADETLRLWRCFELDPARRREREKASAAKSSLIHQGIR
UniProt P49674: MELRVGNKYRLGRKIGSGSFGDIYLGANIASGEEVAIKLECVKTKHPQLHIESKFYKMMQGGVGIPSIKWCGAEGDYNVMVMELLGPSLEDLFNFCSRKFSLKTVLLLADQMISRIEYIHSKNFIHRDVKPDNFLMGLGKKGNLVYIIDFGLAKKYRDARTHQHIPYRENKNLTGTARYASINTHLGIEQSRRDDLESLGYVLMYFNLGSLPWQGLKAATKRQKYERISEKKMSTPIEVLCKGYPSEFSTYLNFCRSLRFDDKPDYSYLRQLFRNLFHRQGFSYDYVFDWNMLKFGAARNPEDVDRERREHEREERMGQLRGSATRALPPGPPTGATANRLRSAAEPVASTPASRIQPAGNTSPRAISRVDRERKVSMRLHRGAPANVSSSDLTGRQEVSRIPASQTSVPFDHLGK
UniProt P63208: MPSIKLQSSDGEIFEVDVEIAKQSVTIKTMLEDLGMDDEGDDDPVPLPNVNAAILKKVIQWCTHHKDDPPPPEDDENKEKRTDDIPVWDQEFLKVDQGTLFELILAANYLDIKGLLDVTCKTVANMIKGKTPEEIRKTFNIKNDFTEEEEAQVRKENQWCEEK

Which binding does the source give for “CDC20 (found with GST-RB1 by MS) (from UniProt Q12834 1-499)” here?
Its binding is “binds”.

Which binding does the source give for “CK1ε (found with GST-RB1 by MS) (from UniProt P49674 1-416) (enzyme)” here?
The binding was “binds”.

Which binding does the source give for “SKP1 (found with GST-RB1 by MS) (from UniProt P63208 1-163)” here?
Its binding is “binds”.
